This series in a line: Fragrance Fidelity Index (FFI), expert graders smelling treated fabric swatches against ethyl vanillin reference scale.
[1] abbreviates: Conc 10 ppm test material on swatch.
Where [2] appears, read: Conc 50 ppm test material on swatch.
[3] abbreviates: test material Conc 50 ppm on fabric swatch.
The mark [4] stands for this setting: test material Conc 10 ppm on fabric swatch.

`O=C1CCC2CCCCC2O1` (centres unmarked) [3,4,4a,5,6,7,8,8a-octahydrochromen-2-one]: the FFI runs as follows: under setting [1], 0; under setting [2], 0.

For the compound `CCCCCCCCCCCC(=O)OCC` [Material 391], the FFI under setting [2] was determined as 0.3.

Turning to `CC(=O)OCCCCCCC(C)C` [Material 204], the FFI is given as 0 under setting [1] and 0 under setting [2].

`CC1CCC2(C(C)C)CC(C)OC2C1` (centres unmarked): under setting [3], the FFI was 0.3.

Under setting [2], `CCCCCCCCCCCO` [Undecanol] had an FFI of 0.8.

Under setting [2], `CCCCCCCCCCCCO` [Material 174] came in with an FFI of 0.5.

For `CCC(=O)OC1CC2C3C=CCC3C1C2(C)C` (centres unmarked) [8,8-dimethyl-3a,4,5,6,7,7a-hexahydro-1H-4,7-methanoinden-6-yl propionate], the FFI stood at 0 under setting [4] and 0 under setting [3].

As to `CC1(C)CCc2ccc(CCC=O)cc21`, the FFI runs as follows: under setting [4], 0; under setting [3], 0.5.

Regarding `CC(CCO)CCc1ccccc1` (centres unmarked) [Material 962], the FFI turned out to be 0 under setting [1] and 0.5 under setting [2].

Compound `C=C1CCC2OC2(C)CCC2C1CC2(C)C` (centres unmarked) [Material 1148] displayed an FFI under setting [2] of 0.5.

As to `CC(C)(C)C1CCCCC1` [4-tert-butyl cyclohexane], the FFI is 0 under setting [1] and 0.3 under setting [2].

For `CC1(C)CCc2ccc(CCC=O)cc21` [Material 261], the FFI runs as follows: under setting [1], 0; under setting [2], 1.3.

Under setting [2], `CCOC(=O)OC1C(C)CCC(C)C1C` (centres unmarked) [Material 1005] showed an FFI of 0.5.

As to `COC(=O)OC1CCC=CCCC1` (centres unmarked) [Material 1139], the FFI is reported as 0 under setting [1] and 1.0 under setting [2].

Compound `C=CC(C)=CCC=C(C)C` [Material 524] showed an FFI under setting [2] of 0.

As for `CC(=O)OC1CC2CC1C1CC=CC21` (centres unmarked) [Material 281], the FFI came out at 0 under setting [1] and 0.5 under setting [2].

For the compound `CCC(O)COC1CCCCC1C(C)(C)C` (centres unmarked) [Material 677], the FFI under setting [1] is recorded as 0 and the FFI under setting [2] was 1.8.

As for `CC1(C)C2CCC3(C2)C1C(=O)CCC3(C)C` (centres unmarked) [Material 1149], the FFI is 0 under setting [1] and 0.8 under setting [2].
